In US10221215:
These are yes or no findings as the source states them, for the method shown. Binding can be weak; no strength is given.

Biological target: N-terminal His6-tagged Ras1-166 (human)
Assay: fluorescence polarization, direct binding, Ras titrated into 15 nM labelled peptide

binding: binds
Binder: FEGIYRLELLKAEEAN (fluorescein label (site of attachment shown only in a drawing)) [7^uncon-Flu]
